Assay: Colorimetric β-1,4-endoglucanase assay of Cell-1 on CMC
Assay type: biochemical
Settings: BEVS-expressed
Method: Colorimetric β-1,4-endoglucanase enzyme assays: Six total substrates were tested: CMC (carboxymethyl cellulose), pNPG (p-nitrophenyl-beta-D-glucopyranoside), pNPC2 (p-nitrophenyl-beta-D-cellobioside), pNPC3 (p-nitrophenyl-beta-D-cellotrioside), pNPC4 (p-nitrophenyl-beta-D-cellotetraoside), and pNPC5 (p-nitrophenyl-beta-D-cellopentaoside). All assay methods were carried out under optimal conditions (Zhou et al., (2007) Gene 395:29-39).
(FIG. 7). For subsequent characterizations, the 1.5% CMC concentration was used. pH studies were performed by dissolving 1.5% CMC in two different buffer systems: 100 mM sodium acetate (pH 3-6.5) and 100 mM sodium phosphate (pH 7-10.5), as shown in FIG. 8. […] Temperature-cofactor studies were performed using 1.5% CMC dissolved in 100 mM sodium phosphate (pH 7) alone, plus 4 mM EDTA (final concentration), or plus 10 mM calcium chloride (final concentration). Pre-incubations took place for 0-5 days at 25° C. or 0-60 min at 60° C. or 70° C.; reactions were terminated by the combination of adding stop solution and boiling for 10 min, and then assays were read at 25° C. (FIG. 9).

B1: Cell-1: host-derived β-1,4-endoglucanase (GHF9) from Reticulitermes flavipes, SEQ ID NO.: 2; recombinant, BEVS or E. coli expressed (protein)
chain: MKVFVCLLSALALCQAAYDYKTVLSNSLLFYEAQRSGKLPSDQKVTWRKDSALNDKGQKGEDLTGGYYDAGDFVKFGFPMAYTVTVLAWGVIDYESAYSAAGALDSGRKALKYGTDYFLKAHTAANEFYGQVGQGDVDHAYWGRPEDMTMSRPAYKIDTSKPGSDLAAETAAALAATAIAYKSADATYSNNLITHAKQLFDFANNYRGKYSDSITDAKNFYASGDYKDELVWAAAWLYRATNDNTYLTKAESLYNEFGLGNWNGAFNWDNKISGVQVLLAKLTSKQAYKDKVQGYVDYLISSQKKTPKGLVYIDQWGTLRHAANSALIALQAADLGINAATYRAYAKKQIDYALGDGGRSYVVGFGTNPPVRPHHRSSSCPDAPAVCDWNTYNSAGPNAHVLTGALVGGPDSNDSYTDARSDYISNEVATDYNAGFQSAVAGLLKAGV
modifications: Reticulitermes flavipes; amino acid sequence Beta-1,4-endoglucanase (Cell-1)
notes: recombinant, BEVS or E. coli expressed
In the case of B1, the “pH of maximal/optimal CMC activity” value (1.5% CMC, listed as BEVS-expressed Cell-1) is reported as “around neutral pH” and the “temperature of maximal CMC activity” value (sodium phosphate buffer pH 7) is reported as 50-60 °C.

— US8445240B2, “Termite enzymes and uses thereof for in vitro conversion of lignin-containing materials to fermentable products” (University of Florida Research Foundation, Inc., priority 2009, dated 2013)
